Holding throughout (assay): cross-linking
The target of experiment [1] is Tor1 (Saccharomyces cerevisiae (endogenous in yeast vacuoles)) (UniProt P35169).
Experiment [2] addresses T1, Lst8 (Saccharomyces cerevisiae (endogenous in yeast vacuoles)) (UniProt P41318).
T1 sequence: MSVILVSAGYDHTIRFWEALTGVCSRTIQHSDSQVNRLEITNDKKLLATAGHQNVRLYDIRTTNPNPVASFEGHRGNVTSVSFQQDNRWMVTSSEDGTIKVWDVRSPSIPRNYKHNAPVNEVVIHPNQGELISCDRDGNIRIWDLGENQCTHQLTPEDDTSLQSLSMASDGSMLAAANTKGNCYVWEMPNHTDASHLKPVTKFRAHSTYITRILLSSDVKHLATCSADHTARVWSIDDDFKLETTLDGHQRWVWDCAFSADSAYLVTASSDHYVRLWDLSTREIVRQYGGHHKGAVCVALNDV

Amino acid sequences for entries named in this document (tags omitted).
UniProt P35169: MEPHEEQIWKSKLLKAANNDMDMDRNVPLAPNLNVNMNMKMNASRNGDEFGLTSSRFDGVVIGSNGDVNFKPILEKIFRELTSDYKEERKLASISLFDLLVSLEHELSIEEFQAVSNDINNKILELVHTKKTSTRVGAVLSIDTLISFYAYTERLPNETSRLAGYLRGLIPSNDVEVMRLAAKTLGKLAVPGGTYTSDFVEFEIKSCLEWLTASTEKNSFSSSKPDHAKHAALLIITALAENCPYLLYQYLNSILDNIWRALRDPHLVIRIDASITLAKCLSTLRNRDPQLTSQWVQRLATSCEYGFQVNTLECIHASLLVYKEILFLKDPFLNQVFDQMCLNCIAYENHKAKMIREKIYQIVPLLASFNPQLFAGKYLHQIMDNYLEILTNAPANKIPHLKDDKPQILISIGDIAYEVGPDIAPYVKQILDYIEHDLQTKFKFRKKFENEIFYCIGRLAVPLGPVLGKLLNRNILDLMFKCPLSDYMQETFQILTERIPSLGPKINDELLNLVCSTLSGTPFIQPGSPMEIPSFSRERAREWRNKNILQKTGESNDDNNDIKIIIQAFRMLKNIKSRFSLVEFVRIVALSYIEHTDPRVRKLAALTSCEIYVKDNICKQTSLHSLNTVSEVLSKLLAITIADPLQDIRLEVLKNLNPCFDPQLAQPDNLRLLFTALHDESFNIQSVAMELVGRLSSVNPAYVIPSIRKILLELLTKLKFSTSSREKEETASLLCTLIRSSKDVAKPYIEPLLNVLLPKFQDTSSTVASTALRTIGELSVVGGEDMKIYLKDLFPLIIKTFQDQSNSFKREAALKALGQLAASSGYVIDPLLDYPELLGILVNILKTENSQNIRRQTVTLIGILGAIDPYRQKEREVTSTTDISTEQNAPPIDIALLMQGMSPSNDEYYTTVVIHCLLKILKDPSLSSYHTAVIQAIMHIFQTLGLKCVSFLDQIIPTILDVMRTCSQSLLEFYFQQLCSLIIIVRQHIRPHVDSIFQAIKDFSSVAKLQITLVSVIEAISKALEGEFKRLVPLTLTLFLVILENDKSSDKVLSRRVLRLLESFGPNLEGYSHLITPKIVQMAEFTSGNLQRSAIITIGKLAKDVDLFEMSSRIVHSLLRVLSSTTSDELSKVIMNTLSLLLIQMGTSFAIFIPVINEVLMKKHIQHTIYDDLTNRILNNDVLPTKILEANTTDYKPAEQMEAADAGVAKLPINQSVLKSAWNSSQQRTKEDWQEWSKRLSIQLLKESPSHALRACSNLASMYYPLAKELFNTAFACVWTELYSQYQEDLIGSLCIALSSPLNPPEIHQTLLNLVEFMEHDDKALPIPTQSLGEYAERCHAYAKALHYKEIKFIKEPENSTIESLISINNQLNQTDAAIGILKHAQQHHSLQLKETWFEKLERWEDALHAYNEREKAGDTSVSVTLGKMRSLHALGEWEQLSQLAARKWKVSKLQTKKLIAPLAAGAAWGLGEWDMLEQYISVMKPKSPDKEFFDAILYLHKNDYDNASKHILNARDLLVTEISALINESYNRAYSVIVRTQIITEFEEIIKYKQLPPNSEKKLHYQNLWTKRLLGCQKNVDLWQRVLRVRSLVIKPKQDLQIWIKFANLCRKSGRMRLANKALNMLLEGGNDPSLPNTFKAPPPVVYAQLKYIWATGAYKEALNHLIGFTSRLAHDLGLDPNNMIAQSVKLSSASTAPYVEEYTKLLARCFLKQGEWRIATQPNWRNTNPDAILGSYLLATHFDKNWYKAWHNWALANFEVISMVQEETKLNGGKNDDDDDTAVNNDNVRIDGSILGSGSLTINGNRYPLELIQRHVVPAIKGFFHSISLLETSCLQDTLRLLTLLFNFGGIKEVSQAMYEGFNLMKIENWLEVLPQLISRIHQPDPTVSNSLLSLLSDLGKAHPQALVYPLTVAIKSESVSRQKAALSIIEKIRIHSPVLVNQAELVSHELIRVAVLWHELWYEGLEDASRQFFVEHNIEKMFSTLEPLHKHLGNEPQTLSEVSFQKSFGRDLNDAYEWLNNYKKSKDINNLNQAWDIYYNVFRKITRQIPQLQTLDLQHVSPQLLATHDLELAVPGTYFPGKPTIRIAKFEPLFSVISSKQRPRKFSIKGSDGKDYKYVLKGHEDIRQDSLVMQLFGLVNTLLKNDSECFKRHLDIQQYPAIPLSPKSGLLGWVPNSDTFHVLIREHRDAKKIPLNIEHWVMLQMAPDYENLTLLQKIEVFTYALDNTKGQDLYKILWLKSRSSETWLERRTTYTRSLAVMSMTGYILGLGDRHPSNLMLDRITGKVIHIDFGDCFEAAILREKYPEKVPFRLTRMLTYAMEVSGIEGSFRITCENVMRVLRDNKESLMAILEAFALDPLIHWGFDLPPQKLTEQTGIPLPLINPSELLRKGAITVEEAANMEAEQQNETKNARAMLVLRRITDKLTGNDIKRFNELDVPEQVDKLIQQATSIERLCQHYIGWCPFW
UniProt P38873: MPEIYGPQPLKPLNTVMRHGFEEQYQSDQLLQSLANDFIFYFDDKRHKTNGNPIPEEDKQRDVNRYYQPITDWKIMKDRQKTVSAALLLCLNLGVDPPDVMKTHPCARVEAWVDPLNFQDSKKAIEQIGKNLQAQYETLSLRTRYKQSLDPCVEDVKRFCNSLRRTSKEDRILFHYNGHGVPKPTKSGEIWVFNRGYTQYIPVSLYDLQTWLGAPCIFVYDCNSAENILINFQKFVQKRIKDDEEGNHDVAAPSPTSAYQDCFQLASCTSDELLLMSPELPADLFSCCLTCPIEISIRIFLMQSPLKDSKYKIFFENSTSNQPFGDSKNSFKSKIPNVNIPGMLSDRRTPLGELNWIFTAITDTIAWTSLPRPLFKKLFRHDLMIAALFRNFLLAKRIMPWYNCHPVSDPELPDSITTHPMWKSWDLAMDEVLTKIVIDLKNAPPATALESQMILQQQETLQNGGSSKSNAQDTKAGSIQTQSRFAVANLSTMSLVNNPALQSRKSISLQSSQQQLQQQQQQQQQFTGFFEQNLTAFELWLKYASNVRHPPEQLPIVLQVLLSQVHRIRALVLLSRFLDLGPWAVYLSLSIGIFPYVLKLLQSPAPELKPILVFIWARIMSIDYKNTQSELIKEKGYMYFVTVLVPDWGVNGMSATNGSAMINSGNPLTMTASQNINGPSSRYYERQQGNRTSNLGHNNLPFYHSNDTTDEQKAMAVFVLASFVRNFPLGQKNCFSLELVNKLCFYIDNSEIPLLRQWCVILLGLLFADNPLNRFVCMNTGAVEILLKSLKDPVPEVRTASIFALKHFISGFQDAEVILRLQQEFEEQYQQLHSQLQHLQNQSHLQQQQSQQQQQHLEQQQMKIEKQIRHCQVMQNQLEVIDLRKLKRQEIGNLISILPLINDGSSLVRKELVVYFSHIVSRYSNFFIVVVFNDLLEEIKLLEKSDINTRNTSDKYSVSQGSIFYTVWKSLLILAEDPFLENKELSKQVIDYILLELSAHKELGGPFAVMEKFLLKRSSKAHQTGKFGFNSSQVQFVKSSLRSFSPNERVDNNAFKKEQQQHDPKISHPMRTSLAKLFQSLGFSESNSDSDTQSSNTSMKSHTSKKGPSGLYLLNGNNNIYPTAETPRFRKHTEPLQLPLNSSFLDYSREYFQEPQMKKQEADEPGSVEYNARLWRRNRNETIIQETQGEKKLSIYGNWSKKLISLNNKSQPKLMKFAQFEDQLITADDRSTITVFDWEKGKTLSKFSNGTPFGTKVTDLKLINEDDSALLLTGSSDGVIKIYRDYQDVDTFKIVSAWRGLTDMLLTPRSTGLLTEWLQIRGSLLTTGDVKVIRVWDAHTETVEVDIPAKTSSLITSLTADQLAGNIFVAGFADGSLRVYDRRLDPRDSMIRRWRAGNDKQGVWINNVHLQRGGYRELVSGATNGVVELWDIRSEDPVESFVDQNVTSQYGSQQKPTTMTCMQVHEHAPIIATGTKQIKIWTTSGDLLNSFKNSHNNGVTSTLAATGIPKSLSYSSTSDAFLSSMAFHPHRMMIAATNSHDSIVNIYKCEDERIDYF
UniProt Q04338: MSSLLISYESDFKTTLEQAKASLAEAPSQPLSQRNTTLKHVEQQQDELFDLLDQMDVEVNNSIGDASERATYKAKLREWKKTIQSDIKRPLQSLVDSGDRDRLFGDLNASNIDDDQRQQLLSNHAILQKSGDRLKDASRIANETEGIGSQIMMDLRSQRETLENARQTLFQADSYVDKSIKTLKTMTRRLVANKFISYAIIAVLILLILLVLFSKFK

The target in experiment [3] is Kog1 (Saccharomyces cerevisiae (endogenous in yeast vacuoles)) (UniProt P38873).
Experiment [4] deals with Vti1 (Saccharomyces cerevisiae (endogenous in yeast vacuoles)) (UniProt Q04338).
The target in experiment [5] is T2, Vam3 (Saccharomyces cerevisiae (endogenous in yeast vacuoles)) (UniProt Q12241).
T2 sequence: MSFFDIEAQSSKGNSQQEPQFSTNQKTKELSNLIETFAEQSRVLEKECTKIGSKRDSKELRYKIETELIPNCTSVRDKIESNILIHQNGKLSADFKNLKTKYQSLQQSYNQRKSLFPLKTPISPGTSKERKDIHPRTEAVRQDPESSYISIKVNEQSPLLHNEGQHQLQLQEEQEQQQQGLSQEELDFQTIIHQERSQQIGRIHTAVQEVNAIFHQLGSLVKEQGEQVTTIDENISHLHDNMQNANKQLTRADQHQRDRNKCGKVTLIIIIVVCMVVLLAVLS

These are yes or no findings as the source states them, for the method shown. In cells and extracts the contact can be indirect. Some binding calls cover weakened binding; strength is not graded here. For some assays here: Tags and fused reporters may be left off the sequences shown.

B1: Pib2 (protein, UniProt P53191 1-635)
chain: MTALHSVSKTPAIKEEEEDGDERDGRGVPLGPRNHDYRGRKGDEESGADTVTSPITFEKKKIAPRASTHSEQSILSSISLKSMVNQHRQQQLQQESSTGAGTGFVDRKQQIQSPAMVSILRKNSAEENVRSSHSSKLGEGQIDGRKASASKEIGKTLPFTDDQRSNPELDPTNSVVDVSRGKNTKSKTVFNELEDDADDDDEVRQKNLTTQALRKLSSFKMNASSNLRLSKENKAKESSSSSTSSVSSSSTSKVENIVDKLTTTNSSSMSQLRFGNTNVIIDSVNHAAKPPHQQMLRKPSLEFLPQPASSTNLNFNSNKHKSNVRQISNPKKPLYIPAVLRKVSETNITNDDLLNATLSSYYKKASNLEHGFNPSKSQSASVQNANNLRIISSQSSVQSNTSSILESYKNKISSYLFPNSIPNSDRINLIPTISNRNSARVNPPTKDHWIPDSKRNSCRYCHKPFTLWERKHHCRHCGDIFCQDHLRHWLYLDSQANFIMINELNNGGINGGGTLCKICDDCLVEYENLSTTNHNANTNEDNINVEEGEDDDNDNRKKLRNYYKNRQMNALFRPKKGGSSQEHATVDRDTTTPIQVKSNDEEADNENTGGEQEEGNDVLGSVIGSVPANWNWSSF
Turning to B1, the binding entry in experiment [1], in experiment [2] and in experiment [3] was “binds” each time.

B2: Vam7 (protein, UniProt P32912 1-316)
chain: MAANSVGKMSEKLRIKVDDVKINPKYVLYGVSTPNKRLYKRYSEFWKLKTRLERDVGSTIPYDFPEKPGVLDRRWQRRYDDPEMIDERRIGLERFLNELYNDRFDSRWRDTKIAQDFLQLSKPNVSQEKSQQHLETADEVGWDEMIRDIKLDLDKESDGTPSVRGALRARTKLHKLRERLEQDVQKKSLPSTEVTRRAALLRSLLKECDDIGTANIAQDRGRLLGVATSDNSSTTEVQGRTNNDLQQGQMQMVRDQEQELVALHRIIQAQRGLALEMNEELQTQNELLTALEDDVDNTGRRLQIANKKARHFNNSA
B2: the binding result in experiment [4] and in experiment [5] was “binds” throughout.

The values are drawn from article doi:10.1101/2023.08.21.554079.
